The exact form of at least one protein or probe is not confirmed. The comparison behind a weaker result is the experiment's own reference, which may not be listed here. Where a protein sequence is shown, tags need not be part of it.
Columns and labels:
[1] = target: T1, TWIST1 (Homo sapiens) (UniProt Q15672); test: EMSA; conditions: weakly detected; EMSA: 20 mM HEPES pH 7.9, 60 mM KCl, 1 mM MgCl2, 0.5 mM DTT, 10% glycerol, 10 µL with 1-3 µL TnT lysate; competitor at least 50x molar excess; 6% native gel, 0.5X TBE; protein translated in vitro; protein details: Myc; label: 32P as probe, unlabeled as competitor
T1 sequence (looked up, limits assumed): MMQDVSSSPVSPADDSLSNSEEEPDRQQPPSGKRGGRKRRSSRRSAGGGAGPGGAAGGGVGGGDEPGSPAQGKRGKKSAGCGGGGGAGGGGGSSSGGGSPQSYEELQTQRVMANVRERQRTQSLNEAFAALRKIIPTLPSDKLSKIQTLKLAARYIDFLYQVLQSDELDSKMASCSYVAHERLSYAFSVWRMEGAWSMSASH

[2] = target: T2, TWIST2 (Homo sapiens) (UniProt Q8WVJ9); test: competition with a labelled probe; conditions: partial competition vs labeled CH2700EA; EMSA: 20 mM HEPES pH 7.9, 60 mM KCl, 1 mM MgCl2, 0.5 mM DTT, 10% glycerol, 10 µL with 1-3 µL TnT lysate; competitor at least 50x molar excess; 6% native gel, 0.5X TBE; protein translated in vitro; protein details: N-terminal Myc; label: unlabeled competitor
T2 sequence (looked up, limits assumed): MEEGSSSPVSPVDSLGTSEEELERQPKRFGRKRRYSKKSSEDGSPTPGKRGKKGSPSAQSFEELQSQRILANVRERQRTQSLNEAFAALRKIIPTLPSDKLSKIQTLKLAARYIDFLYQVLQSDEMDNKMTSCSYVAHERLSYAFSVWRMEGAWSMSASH

| Sequence | binding result [1] | binding result [2] |
| --- | --- | --- |
| TGGTGGTGGTCACATGAATATACACATGCGATAAAATT (double strand) [CH2700EA] | binds more weakly |  |
| TGGTGGTGGTCACATGAATATACGCACGCGATAAAATT (double strand) [CH2700EWAM] |  | binds more weakly |
